# PubChem BioAssay AID504834 (National Center for Advancing Translational Sciences (NCATS), 2011)
# About 22,000 (6.9%) of roughly 320,000 compounds were called active. The inconclusive results got no clear call from the source; some entries with a clear call stand among them for comparison. Calls come from the whole dose curve; as a rule, active = well fitted inhibition curve with a large enough effect; inconclusive = small, poorly fitted or top-dose-only effect, or another doubt; inactive = no such curve, though single readings can be large or run the other way. A potency beside an inconclusive call is a rough fit, not a confirmed value.
# Experiment: Primary qHTS for delayed death inhibitors of the malarial parasite plastid, 96 hour incubation
# Conditions: P. falciparum luciferase reporter growth; series mostly up to 28.7 µM; activity change, negative = inhibition: at the top concentration
# Procedure, shortened: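 Cell-based qHTS: luciferase-tagged P. falciparum in erythrocytes (2% hematocrit, 0.05% parasitemia final) incubated with compounds for 96 hours, 37 C, 5% CO2; luciferase detection reagent then added and luminescence measured.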
# % is set by controls: 0 for no effect and ±100 for the full control effect; potency is the fitted concentration of half-maximal effect.
SMILES,Potency,"activity change, negative = inhibition"
Cc1cc(-c2ccco2)n(CC(=O)NCCN(C)C)n1,"inconclusive: 13.1 µM [inhibitor, single point]",–
CC(C)(C)C(=O)Nc1cc2nn(-c3ccccc3)nc2cc1Cl,–,inactive: 4.82%
NC(=O)CSc1nnc(-c2cccc(S(=O)(=O)N3CCOCC3)c2)n1C1CCCCCC1,"inconclusive: 5.22 µM [inhibitor, partial curve, poor fit]",–
Cc1nn(-c2ccccc2)c(N2CCCC2)c1/C=N/NC(=O)c1cccc(S(=O)(=O)Nc2ccc(Cl)cc2)c1,"inconclusive: 10.4 µM [inhibitor, single point]",–
Cc1ccccc1NC(=O)CSc1nc(COc2ccccc2)nc2ccccc12,"inconclusive: 13.1 µM [inhibitor, single point]",–
CC(C)Cc1cc(CNC(=O)C2CCC(=O)N(Cc3cccc(C(F)(F)F)c3)C2)on1 (stereo not given),"inconclusive: 6.57 µM [inhibitor, partial curve, poor fit]",–
CN(C(=O)c1ccc2c(c1)SC1=NS(=O)(=O)CCN12)C(c1ccccc1)c1ccccc1,active: 11.7 µM,–
O=C(CN(C(=O)c1csnn1)c1ccccc1F)NCc1ccccc1,–,inactive: -13.5%
CCCCn1c(N)c(N(CC(C)C)C(=O)C2CCN(S(=O)(=O)c3ccc(C)cc3C)CC2)c(=O)[nH]c1=O,"inconclusive: 5.22 µM [inhibitor, partial curve]",–
CC1=NN(c2ccc(Br)cc2)C(=O)/C1=C/c1cccs1,–,inactive: 4.27%
Cc1ccc(C2CC(c3cccc(C)c3)n3ncnc3N2)cc1 (stereo not given),"inconclusive: 16.5 µM [inhibitor, single point]",–
Cc1ccc(CN2C(=O)C(Cc3ccccc3)Nc3ncnc(N4CCCCC4)c32)cc1 (stereo not given),active: 4.65 µM,–
Cn1c(=O)c2c(nc(CN3CCc4ccccc4C3)n2Cc2ccccc2F)n(C)c1=O,"inconclusive: 7.38 µM [inhibitor, partial curve]",–
COc1ccc2c(C)cc(SCC(=O)Nc3nsc(-c4ccc(C)cc4)n3)nc2c1,–,inactive: 88.5%
Cc1ccc(CNS(=O)(=O)c2ccc(C(F)(F)F)cc2)n1C,–,inactive: -4.93%
COc1ccc(/C(C)=N/OC/C(O)=C(\C#N)c2nc3ccccc3[nH]2)cc1OC,"inconclusive: 3.7 µM [inhibitor, partial curve, poor fit]",–
Cn1cccc1-c1nc2ccc(NC(=O)c3ccco3)cc2[nH]1,–,inactive: 23%
COc1cc2c(cc1OC)CN(CC(=O)Nc1ccccc1C(=O)NCc1ccccc1)CC2,active: 2.94 µM,–
COc1ccc(OC)c2c1sc(=NC(=O)C1CC1)n2C,–,inactive: 15%
Cc1cc(NC(=O)CSc2ccc(-c3ccc4c(c3)OCO4)nn2)no1,–,inactive: 69.4%
COc1ccccc1NC(=O)NCC1(N(C)C)CCCCC1,–,inactive: 32.4%
C/C(=N/N1CCN(Cc2cccc3ccccc23)CC1)c1cccnc1,"inconclusive: 3.7 µM [inhibitor, partial curve, poor fit]",–
O=C(c1cc2ccccc2o1)N1CCN=C1SCc1cccc(F)c1,"inconclusive: 0.465 µM [inhibitor, partial curve, poor fit]",–
O=C(Nc1ccc(S(=O)(=O)N2CCOCC2)cc1)c1ccccc1Br,"inconclusive: 11.7 µM [inhibitor, single point]",–

SMILES,Potency,"activity change, negative = inhibition"
O=C(O)c1ccc(Nc2nc3ccccc3nc2NS(=O)(=O)c2ccc(F)cc2)cc1,–,inactive: -19.3%
O=C(c1ccccc1)[C@@H]1[C@@H]2C(=O)N(c3ccc(F)cc3)C(=O)[C@@H]2C2CCCN21 (stereo not given in full),–,inactive: -7.65%
CC(=O)N(c1c(C)n(C)n(-c2ccccc2)c1=O)C1(C(=O)NC2CCCC2)CCCCC1,"inconclusive: 18.5 µM [inhibitor, single point]",–
Cc1ccc(S(=O)(=O)N2CCN(c3ncccn3)CC2)c(C)c1,"inconclusive: 18.5 µM [inhibitor, single point]",–
c1cnc(Oc2ccc(-c3nnco3)cc2)cn1,"inconclusive: 18.5 µM [inhibitor, single point]",–
COc1ccccc1OCCNC(=O)C(CCSC)NC(=O)c1ccccc1Cl (stereo not given),"inconclusive: 13.1 µM [inhibitor, single point]",–
CCOc1ccc(CN(C)c2nc(-c3cccnc3)nc3ccccc23)cc1OC,"inconclusive: 13.1 µM [inhibitor, single point]",–
O=C(CSc1nnc(-c2cnccn2)n1Cc1ccco1)c1ccc2ccccc2c1,active: 10.4 µM,–
CCOC(=O)c1[nH]n(-c2ccc(Cl)cc2)c(=O)c1C,"inconclusive: 10.4 µM [inhibitor, single point]",–
CCN(CC)S(=O)(=O)c1ccc(C(C)NC(=O)Cc2c[nH]c3ccccc23)cc1 (stereo not given),"inconclusive: 11.7 µM [inhibitor, partial curve, poor fit]",–
C=CCOC(=O)C1=C(C)OC(N)=C(C#N)C1c1ccoc1 (stereo not given),–,inactive: 16%
COc1cccc(C(=O)O/N=C(\C)c2cnccn2)c1,"inconclusive: 14.7 µM [inhibitor, single point]",–
COc1ccc(C2=NCCNC(C(F)(F)F)=C2)cc1,"inconclusive: 2.62 µM [inhibitor, full curve, poor fit]",–
Cc1sc2nc(CN3CCCC3)nc(NCc3ccncc3)c2c1C,"inconclusive: 14.7 µM [inhibitor, single point]",–
CCOC(=O)c1cccc(NC(=O)Cn2nc(C)n3cccc3c2=O)c1,"inconclusive: 18.5 µM [inhibitor, single point]",–
CCOc1ccc(NC(=O)COC(=O)COc2cccc3c2OC(C)(C)C3)cc1,"inconclusive: 9.28 µM [inhibitor, partial curve, poor fit]",–
O=C(NC(=S)NN1CCCCC1c1cccnc1)c1ccc(Cl)cc1Cl (stereo not given),"inconclusive: 18.5 µM [inhibitor, partial curve, poor fit]",–
COc1ccc(-c2csc(/C(C#N)=C/Nc3cc4oc5ccccc5c4cc3OC)n2)cc1,"inconclusive: 2.62 µM [inhibitor, partial curve, poor fit]",–
COc1ccc(S(=O)(=O)N2CCOC2CNC(=O)C(=O)NCCCc2ccccc2)cc1 (stereo not given),"inconclusive: 2.33 µM [inhibitor, full curve, poor fit]",–
Cc1n[nH]c(C)c1S(=O)(=O)N1CCCC(C(=O)NCc2ccccc2Cl)C1 (stereo not given),"inconclusive: 9.28 µM [inhibitor, partial curve, poor fit]",–
Cc1ccc(C)c(S(=O)(=O)Nc2cc(C)on2)c1,–,inactive: 36.9%
O=C1CSC(c2ccc([N+](=O)[O-])cc2)N1C1CCCCC1 (stereo not given),active: 0.465 µM,–
Oc1c(Br)cc(Br)cc1C=Nc1ccc2[nH]ncc2c1,–,inactive: 124%
Cc1[nH]c2ccccc2c1CCN(Cc1cccs1)C(=S)Nc1ccccc1,"inconclusive: 10.4 µM [inhibitor, single point]",–

SMILES,Potency,"activity change, negative = inhibition"
COc1ccc(C(=O)OCc2cc3cccc(C)c3[nH]c2=O)cc1,"inconclusive: 13.1 µM [inhibitor, single point]",–
CCOC(=O)N/N=C(\C)c1ccccc1OC(F)F,active: 9.28 µM,–
Cc1ccc(Nc2cc(C)nc3ncnn23)c(C)c1,active: 1.47 µM,–
Cc1ccc(C)c(OCC(=O)NCCN(C)C)c1,"inconclusive: 18.5 µM [inhibitor, single point]",–
O=C(N/N=C/c1cccc([N+](=O)[O-])c1)C1CC1c1ccccc1 (stereo not given),active: 11.7 µM,–
CCN(CC(=O)Nc1ccc(NC(C)=O)cc1)C(=O)CCCOc1ccc(C(C)(C)C)cc1,"inconclusive: 4.15 µM [inhibitor, partial curve]",–
O=C(c1cccn2c(=O)c3ccccc3nc12)N1CCC2(CC1)OCCO2,"inconclusive: 18.5 µM [inhibitor, single point]",–
Cn1c(NC(=O)C2c3ccccc3Oc3ccccc32)cc(=O)n(C)c1=O,"inconclusive: 18.5 µM [inhibitor, single point]",–
CSc1cccc(NC(=O)Nc2ccccc2)c1,–,inactive: -2.11%
Cc1ccc(OCCn2c(C3CC(=O)N(Cc4ccccc4)C3)nc3ccccc32)cc1 (stereo not given),"inconclusive: 10.4 µM [inhibitor, partial curve]",–
CCc1nnc(NC(=O)CSc2nnc(COc3ccc(C)cc3)n2-c2ccccc2)s1,"inconclusive: 9.28 µM [inhibitor, single point]",–
N#CC(c1ccc(Cl)cc1)c1ccc(Cl)nn1 (stereo not given),"inconclusive: 11.7 µM [inhibitor, single point]",–
O=[N+]([O-])c1cccc2c3c([nH]c12)CCCC3,–,inactive: 37.3%
C/C(CCc1ccco1)=N\NC(=O)CNc1c(Br)cc(Br)cc1Br,"inconclusive: 14.7 µM [inhibitor, partial curve, poor fit]",–
C=CCNC(=O)CSc1nnc(C(CC)N(C)C)n1C1CCCCC1 (stereo not given),–,inactive: -6.24%
COc1ccc(Cc2nnc(Nc3ccc(C)cc3C)[nH]c2=O)cc1,"inconclusive: 13.1 µM [inhibitor, partial curve]",–
COc1ccc(C(=O)/C=C/Nc2ccc(S(=O)(=O)Nc3onc(C)c3C)cc2)cc1,–,inactive: 46.4%
O=C(COC(=O)CC1SC(N2CCCC2)=NC1=O)Nc1ccc(Br)cc1 (stereo not given),–,inactive: 79.6%
Cc1cc(C)n(-c2ccc(C(=O)NCc3ccc4c(c3)OCO4)cc2)n1,–,inactive: -16.4%
CSc1nnc(C)c(=O)n1COC(=O)c1ccc(S(=O)(=O)N2CCCC2)cc1,"inconclusive: 18.5 µM [inhibitor, single point]",–
COc1cc(C(c2oc(CO)cc(=O)c2O)c2oc(CO)cc(=O)c2O)cc(OC)c1OC,"inconclusive: 11.7 µM [inhibitor, partial curve, poor fit]",–
N#CCCN(CC(=O)O)S(=O)(=O)c1ccccc1,–,inactive: -5.33%

# A draw from above in order of formula weight, falling:
SMILES,Potency,"activity change, negative = inhibition"
COc1ccc(C(=O)/C=C/Nc2ccc(S(=O)(=O)Nc3onc(C)c3C)cc2)cc1,–,inactive: 46.4%
CSc1nnc(C)c(=O)n1COC(=O)c1ccc(S(=O)(=O)N2CCCC2)cc1,"inconclusive: 18.5 µM [inhibitor, single point]",–
O=C(c1cccn2c(=O)c3ccccc3nc12)N1CCC2(CC1)OCCO2,"inconclusive: 18.5 µM [inhibitor, single point]",–
